# Values quoted from earlier work as cited in publication PMC5452965 (PeerJ, 2017).
# Columns and labels:
# MCF-7 cells = conditions: MTT, 72 h; ref Wang et al. (2016a); cited from earlier work
# Hela cells = conditions: MTT, 48 h; ref Wang et al. (2016a); cited from earlier work
# U2OS cells = conditions: MTT, 48 h; ref Wang et al. (2016a); cited from earlier work
compound,measurement,setting,value
"COc1cc2c(c(OC)c1OC)-c1ccc(OC)c(=O)cc1[C@@H](NC(C)=O)CC2 [Colchicine, colchicine]",IC50,MCF-7 cells,30.3 ± 8.02 nM
same,IC50,Hela cells,14.9 ± 3.94 nM
same,IC50,U2OS cells,25.2 ± 19.6 nM
